From paper doi:10.1101/2022.02.11.480108
Results are given in words; binding and its absence hold for the method and conditions named. Some binding calls cover weakened binding; strength is not graded here.

Protein sequences, listed by entry. Tags and fused reporters are not part of them. Lines headed by an entry give the natural chain unless they say otherwise; changes in a name come on top. Residues count along the entry.
UniProt Q9Y697, 56-457, stated change not applied: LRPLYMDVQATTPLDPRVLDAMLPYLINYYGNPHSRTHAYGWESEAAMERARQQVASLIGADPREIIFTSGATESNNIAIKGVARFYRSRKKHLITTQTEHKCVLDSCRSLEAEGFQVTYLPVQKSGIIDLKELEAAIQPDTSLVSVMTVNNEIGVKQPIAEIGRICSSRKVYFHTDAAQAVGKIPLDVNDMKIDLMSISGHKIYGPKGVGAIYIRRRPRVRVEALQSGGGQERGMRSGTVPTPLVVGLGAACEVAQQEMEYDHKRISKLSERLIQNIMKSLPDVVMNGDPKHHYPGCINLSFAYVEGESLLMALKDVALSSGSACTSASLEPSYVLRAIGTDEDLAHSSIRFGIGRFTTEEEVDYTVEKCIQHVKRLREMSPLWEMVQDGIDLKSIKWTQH
UniProt Q9HD34, whole entry: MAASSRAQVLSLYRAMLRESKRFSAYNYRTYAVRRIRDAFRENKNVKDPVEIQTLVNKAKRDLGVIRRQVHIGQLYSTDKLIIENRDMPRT

Target: human cysteine desulfurase NFS1, mature form (NFS1Δ55) (human) (UniProt Q9Y697)
Assay: co-purification on Ni-NTA

binding: binds
Substance: ISD11 (human LYR motif-containing protein 4) (from UniProt Q9HD34 1-91)
